Data taken from paper doi:10.1101/031336.
Positions count from the first letter of the chain named. No constants are given. Whether binding was seen depends on the method and setting. In cells and extracts the contact can be indirect. Some binding calls cover weakened binding; strength is not graded here. Tags and fused reporters may be left off the sequences shown.

Protein sequences, listed by entry. Tags and fused reporters are not part of them.
UniProt P23330: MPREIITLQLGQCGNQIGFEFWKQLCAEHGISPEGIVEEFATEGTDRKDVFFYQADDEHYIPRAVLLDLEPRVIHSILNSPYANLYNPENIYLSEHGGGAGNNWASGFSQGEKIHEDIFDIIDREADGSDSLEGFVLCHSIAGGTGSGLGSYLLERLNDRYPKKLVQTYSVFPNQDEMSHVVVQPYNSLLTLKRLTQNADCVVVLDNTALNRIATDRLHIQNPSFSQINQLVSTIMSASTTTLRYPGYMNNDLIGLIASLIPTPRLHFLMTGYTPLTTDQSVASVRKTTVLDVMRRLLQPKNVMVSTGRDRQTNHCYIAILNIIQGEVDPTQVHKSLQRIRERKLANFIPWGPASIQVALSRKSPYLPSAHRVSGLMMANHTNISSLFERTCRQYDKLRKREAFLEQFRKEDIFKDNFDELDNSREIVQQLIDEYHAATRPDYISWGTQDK

How the values were obtained:
Test in all cases: co-IP
2xFlag-196/197AA (human) = molecular target: T1, 2xFlag-196/197AA (human) (UniProt Q9P2S5)
T1 sequence: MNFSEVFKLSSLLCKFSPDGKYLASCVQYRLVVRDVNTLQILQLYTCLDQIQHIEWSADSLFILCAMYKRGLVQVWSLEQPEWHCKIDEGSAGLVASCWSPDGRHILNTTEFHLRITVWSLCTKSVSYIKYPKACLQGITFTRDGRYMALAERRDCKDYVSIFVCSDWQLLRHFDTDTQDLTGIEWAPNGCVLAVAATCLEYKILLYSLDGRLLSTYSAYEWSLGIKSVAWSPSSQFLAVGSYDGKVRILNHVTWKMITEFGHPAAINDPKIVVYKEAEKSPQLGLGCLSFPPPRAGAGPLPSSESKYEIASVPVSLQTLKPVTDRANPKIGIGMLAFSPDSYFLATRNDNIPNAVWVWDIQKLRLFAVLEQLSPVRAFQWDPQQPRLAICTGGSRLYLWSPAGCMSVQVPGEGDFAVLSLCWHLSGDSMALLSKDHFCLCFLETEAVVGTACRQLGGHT

2xFlag-359/360AA (human) = molecular target: T2, 2xFlag-359/360AA (human) (UniProt Q9P2S5)
T2 sequence: T1 sequence with A196W, A197D, W359A, D360A

[1] = molecular target: T3, 2xFlag-huWdr8 wild-type (human) (UniProt Q9P2S5)
T3 sequence: T1 sequence with A196W, A197D

binding (2xFlag-196/197AA (human)): binds | binding (2xFlag-359/360AA (human)): binds | binding [1]: binds
Substance: γ-tubulin (from UniProt P23330 1-451)
